Assay results from the supplement of paper PMC10849652.
The list shows a part of the results.

Sequences of proteins named here, by UniProt entry; tags and fusion partners are left off. A change or cut given only in a name is not applied to a line headed by its entry.
UniProt O43766: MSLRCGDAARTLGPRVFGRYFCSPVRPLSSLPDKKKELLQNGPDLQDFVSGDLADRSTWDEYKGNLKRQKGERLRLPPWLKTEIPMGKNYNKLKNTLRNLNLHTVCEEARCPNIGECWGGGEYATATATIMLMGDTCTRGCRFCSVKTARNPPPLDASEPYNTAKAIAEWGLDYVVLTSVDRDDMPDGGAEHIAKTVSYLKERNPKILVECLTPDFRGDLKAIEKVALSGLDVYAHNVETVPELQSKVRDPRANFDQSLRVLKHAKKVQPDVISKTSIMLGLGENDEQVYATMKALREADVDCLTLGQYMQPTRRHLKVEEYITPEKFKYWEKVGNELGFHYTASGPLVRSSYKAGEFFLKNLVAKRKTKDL
UniProt Q9Y2U8: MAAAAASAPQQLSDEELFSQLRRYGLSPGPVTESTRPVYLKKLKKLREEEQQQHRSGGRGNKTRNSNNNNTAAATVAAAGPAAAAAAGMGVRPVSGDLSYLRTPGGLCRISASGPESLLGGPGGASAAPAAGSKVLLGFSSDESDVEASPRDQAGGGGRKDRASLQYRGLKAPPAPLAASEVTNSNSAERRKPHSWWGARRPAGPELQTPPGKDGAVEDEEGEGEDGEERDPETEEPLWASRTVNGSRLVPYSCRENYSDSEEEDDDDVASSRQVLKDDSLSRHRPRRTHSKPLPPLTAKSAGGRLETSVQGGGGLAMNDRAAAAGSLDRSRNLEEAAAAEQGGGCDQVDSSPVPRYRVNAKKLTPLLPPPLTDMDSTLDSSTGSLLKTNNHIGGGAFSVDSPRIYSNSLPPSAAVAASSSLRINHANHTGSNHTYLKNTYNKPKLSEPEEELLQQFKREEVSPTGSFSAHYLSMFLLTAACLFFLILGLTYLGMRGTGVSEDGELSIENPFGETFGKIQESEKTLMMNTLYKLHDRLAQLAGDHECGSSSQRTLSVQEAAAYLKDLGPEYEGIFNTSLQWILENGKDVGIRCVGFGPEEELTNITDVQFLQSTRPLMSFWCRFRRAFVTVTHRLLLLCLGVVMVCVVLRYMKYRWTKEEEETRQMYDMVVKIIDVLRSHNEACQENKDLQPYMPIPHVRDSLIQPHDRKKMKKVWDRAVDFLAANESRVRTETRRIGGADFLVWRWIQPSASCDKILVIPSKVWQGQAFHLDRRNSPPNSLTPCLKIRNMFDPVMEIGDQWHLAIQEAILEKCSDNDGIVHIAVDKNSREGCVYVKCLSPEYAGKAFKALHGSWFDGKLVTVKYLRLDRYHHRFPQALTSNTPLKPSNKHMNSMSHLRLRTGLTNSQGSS
UniProt Q1L5Z9: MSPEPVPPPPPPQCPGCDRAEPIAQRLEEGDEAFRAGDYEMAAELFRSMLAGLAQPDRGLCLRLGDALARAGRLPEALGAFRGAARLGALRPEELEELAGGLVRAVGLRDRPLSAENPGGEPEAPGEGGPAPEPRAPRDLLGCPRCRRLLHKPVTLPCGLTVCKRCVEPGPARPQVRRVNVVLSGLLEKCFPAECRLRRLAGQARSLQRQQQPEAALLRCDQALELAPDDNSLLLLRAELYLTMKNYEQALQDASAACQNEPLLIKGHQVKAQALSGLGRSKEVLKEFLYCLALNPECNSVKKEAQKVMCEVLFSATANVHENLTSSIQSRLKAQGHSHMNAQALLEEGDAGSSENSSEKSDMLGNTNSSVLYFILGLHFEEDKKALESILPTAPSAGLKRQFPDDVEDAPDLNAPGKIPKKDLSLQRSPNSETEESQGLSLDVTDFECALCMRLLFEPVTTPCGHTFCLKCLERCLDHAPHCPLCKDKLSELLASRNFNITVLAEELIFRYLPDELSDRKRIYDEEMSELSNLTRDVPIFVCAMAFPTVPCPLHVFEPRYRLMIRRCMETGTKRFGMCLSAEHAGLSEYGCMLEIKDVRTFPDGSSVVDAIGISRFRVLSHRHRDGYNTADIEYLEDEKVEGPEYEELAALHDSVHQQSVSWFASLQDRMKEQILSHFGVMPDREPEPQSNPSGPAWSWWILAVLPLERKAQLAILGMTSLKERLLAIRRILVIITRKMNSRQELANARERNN
UniProt Q9Y608: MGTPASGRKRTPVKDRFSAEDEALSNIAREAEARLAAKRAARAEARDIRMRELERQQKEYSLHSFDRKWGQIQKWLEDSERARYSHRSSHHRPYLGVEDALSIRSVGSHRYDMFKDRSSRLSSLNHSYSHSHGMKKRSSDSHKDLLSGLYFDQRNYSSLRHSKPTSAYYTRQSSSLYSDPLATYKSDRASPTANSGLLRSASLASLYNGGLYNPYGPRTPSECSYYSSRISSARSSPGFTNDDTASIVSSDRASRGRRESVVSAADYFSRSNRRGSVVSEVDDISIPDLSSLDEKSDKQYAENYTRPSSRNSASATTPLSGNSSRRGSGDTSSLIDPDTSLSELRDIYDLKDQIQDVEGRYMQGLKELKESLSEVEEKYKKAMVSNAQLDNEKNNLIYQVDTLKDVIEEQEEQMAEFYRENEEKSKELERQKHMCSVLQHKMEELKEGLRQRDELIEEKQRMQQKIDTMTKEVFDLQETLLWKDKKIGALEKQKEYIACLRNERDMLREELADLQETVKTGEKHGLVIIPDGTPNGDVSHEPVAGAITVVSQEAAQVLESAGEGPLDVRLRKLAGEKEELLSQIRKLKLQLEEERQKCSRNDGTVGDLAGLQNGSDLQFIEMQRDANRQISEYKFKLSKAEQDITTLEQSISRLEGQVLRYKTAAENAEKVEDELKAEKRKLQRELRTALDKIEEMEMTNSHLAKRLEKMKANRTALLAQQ
UniProt Q5SW96: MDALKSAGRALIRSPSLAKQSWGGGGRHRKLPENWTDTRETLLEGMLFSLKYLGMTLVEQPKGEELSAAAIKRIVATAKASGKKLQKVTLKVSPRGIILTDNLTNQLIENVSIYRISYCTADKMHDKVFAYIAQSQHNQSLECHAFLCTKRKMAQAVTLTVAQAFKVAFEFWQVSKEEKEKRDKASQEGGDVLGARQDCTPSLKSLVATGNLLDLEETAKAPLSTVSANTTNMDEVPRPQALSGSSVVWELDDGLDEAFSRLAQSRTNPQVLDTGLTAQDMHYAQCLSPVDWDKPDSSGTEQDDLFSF
UniProt P83369: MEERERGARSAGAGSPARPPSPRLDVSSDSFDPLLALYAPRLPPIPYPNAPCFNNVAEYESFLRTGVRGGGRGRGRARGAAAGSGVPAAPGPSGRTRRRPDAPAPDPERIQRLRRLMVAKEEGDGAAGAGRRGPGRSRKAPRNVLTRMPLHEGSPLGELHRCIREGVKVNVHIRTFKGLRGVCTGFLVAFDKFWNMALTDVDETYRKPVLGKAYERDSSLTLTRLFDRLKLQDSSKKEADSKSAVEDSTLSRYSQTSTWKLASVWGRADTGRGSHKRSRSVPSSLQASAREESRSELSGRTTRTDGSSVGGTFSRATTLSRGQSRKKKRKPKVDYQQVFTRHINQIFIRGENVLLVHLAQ
UniProt O15116: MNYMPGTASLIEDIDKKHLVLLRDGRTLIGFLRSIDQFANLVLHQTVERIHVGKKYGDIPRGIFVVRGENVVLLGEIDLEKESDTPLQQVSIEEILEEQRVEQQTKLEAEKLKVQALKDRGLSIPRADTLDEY
UniProt Q6NSJ5: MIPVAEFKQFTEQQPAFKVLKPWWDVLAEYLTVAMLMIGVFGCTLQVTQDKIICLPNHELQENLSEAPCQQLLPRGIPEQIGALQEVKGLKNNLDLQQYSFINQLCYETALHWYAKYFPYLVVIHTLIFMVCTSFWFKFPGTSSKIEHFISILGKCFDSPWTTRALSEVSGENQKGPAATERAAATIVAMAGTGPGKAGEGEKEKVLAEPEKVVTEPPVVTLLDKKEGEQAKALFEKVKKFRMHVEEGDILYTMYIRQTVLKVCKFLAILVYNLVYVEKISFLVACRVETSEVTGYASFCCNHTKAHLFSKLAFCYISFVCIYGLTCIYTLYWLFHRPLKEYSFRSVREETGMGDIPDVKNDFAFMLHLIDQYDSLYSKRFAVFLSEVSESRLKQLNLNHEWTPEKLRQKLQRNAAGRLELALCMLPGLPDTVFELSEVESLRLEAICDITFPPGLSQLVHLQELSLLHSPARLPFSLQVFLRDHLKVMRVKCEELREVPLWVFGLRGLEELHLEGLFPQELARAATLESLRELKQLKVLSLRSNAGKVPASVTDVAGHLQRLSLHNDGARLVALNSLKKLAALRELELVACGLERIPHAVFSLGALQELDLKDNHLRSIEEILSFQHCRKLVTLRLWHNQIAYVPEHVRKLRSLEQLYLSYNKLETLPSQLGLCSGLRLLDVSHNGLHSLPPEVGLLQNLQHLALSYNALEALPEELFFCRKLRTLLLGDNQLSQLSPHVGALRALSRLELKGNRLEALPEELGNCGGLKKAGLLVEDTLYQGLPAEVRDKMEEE
UniProt Q9Y4Y9: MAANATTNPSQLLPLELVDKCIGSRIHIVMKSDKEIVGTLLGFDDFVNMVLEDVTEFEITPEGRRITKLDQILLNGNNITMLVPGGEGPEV
UniProt Q8N3X6: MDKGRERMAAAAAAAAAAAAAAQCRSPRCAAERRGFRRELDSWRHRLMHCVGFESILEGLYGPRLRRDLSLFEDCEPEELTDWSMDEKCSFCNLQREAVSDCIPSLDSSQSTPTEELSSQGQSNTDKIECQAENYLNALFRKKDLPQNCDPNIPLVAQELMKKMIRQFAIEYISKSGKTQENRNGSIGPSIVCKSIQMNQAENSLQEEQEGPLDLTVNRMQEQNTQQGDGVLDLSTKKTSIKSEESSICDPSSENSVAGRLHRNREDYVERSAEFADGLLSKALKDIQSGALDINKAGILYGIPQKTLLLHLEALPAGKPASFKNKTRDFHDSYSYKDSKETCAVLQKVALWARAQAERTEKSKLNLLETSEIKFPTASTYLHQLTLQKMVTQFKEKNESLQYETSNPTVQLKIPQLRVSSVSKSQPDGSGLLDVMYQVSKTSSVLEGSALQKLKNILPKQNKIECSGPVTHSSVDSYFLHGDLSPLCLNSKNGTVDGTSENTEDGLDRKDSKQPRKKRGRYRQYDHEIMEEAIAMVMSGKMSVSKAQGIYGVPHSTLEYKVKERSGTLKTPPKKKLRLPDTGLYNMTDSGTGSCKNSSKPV
UniProt O15243: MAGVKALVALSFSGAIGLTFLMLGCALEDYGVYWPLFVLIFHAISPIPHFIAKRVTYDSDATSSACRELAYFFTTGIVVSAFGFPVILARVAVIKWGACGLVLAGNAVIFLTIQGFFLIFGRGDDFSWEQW
UniProt P53667: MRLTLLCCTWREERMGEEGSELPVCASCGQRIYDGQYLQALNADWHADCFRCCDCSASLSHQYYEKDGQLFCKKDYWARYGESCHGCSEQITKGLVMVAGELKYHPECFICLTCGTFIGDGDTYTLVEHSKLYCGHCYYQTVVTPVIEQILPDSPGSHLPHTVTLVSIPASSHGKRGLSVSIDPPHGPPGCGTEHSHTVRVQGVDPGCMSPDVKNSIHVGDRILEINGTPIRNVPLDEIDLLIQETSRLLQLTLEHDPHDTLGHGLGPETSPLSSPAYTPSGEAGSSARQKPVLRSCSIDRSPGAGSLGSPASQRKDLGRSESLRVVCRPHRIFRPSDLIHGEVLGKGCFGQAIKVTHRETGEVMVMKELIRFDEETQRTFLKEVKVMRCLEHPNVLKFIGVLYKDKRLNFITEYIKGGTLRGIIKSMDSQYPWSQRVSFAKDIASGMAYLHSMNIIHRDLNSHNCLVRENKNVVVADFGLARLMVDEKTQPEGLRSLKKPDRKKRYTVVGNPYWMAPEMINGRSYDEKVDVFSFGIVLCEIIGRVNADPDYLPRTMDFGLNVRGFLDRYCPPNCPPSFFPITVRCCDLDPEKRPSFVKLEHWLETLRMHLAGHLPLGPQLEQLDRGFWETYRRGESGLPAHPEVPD
UniProt P02545: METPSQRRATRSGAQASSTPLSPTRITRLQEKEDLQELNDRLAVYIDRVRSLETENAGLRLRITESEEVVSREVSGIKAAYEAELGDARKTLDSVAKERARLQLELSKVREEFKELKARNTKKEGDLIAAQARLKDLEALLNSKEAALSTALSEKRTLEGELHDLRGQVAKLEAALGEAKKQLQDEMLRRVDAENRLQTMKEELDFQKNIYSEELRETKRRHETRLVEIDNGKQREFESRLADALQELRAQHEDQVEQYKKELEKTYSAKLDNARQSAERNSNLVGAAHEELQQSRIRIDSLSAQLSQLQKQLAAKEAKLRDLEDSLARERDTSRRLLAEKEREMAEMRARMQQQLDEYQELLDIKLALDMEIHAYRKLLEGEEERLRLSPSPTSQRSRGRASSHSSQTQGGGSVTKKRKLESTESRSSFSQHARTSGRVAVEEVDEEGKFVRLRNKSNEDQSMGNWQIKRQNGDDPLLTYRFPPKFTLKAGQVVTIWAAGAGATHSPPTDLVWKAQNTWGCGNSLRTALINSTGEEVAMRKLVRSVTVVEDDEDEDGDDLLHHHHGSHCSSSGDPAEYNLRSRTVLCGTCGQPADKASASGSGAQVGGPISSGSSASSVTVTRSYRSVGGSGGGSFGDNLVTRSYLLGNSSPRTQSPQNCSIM

Legend:
Assay in all cases: log2 fold change, soluble protein after heating vs DMSO (PISA); higher = thermal stabilisation; K562 lysate, 10 uM; active = over 0.2 and 3.5 SD of the protein, either way, in both replicates (recomputed)
[1] = compound: CN1CC[C@H](c2c(O)cc(O)c3c(=O)cc(-c4ccccc4Cl)oc23)[C@H](O)C1 [alvocidib]
In short: (§1)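 Log-two fold change in thermal stability relative to solvent controls is reported from duplicates. For each sample, crude K562 extract from dounce-homogenised pellets in PBS pH 7.4 with 1 mM MgCl2, at 1 mg/mL protein, was treated with 10 μM compound for 30 min. Aliquots heated for 3 min across 48°C-58°C were pooled, brought to 0.5% NP-40 at 4°C and cleared at 21,000xg for 90 min. The supernatant was quantified by TMTpro 16plex LC-MS/MS with channel sums equalised.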

[2] = compound: CN1CCc2c(c3ccccc3n2Cc2ccc(C(=O)NO)cc2)C1 [Tubastatin A]
In short: as §1

[3] = compound: CNC(=O)C1=CC=CC=C1NC2=NC(=NC=C2Cl)NC3=C(C=C(C=C3)N4CCOCC4)OC
In short: as §1

[4] = compound: CNC(=O)c1ccc(Nc2ncc(C(F)(F)F)c(NCc3nccnc3N(C)S(C)(=O)=O)n2)cc1 [defactinib]
In short: as §1

[5] = compound: CNc1nc(-c2ccc3c(N)n[nH]c3c2)cc(N2C[C@@H](C(=O)NC3CCCCC3)CC[C@H]2C)n1
In short: as §1

[6] = compound: COC(=O)N[C@@H](C)CNc1nccc(-c2cn(C(C)C)nc2-c2cc(Cl)cc(NS(C)(=O)=O)c2F)n1 [encorafenib]
In short: as §1

[7] = compound: COC(=O)[C@H](CCSC)NC(=O)C1=C(C=C(C=C1)NC[C@H](CS)N)C2=CC=CC=C2
In short: as §1

[8] = compound: COc1cc(Nc2ncc3c(n2)-c2ccc(Cl)cc2C(c2c(F)cccc2OC)=NC3)ccc1C(=O)O [alisertib]
In short: as §1

[9] = compound: COc1cc2nc(-c3cc(F)ccc3O)nc(N[C@@H]3CNC[C@H]3C(C)(C)O)c2cc1OC
In short: as §1

[10] = compound: COc1cc2ncnc(Nc3ccc(F)c(Cl)c3)c2cc1OCCCN1CCOCC1 [gefitinib]
In short: as §1

[11] = compound: CS(=O)(=O)CCNCc1ccc(-c2ccc3ncnc(Nc4ccc(OCc5cccc(F)c5)c(Cl)c4)c3c2)o1 [lapatinib]
In short: as §1

[12] = compound: CS(=O)(=O)N1CCN(Cc2cc3nc(-c4cccc5[nH]ncc45)nc(N4CCOCC4)c3s2)CC1 [pictilisib]
In short: as §1

[13] = compound: C[C@@H](Oc1cc(-c2cnn(C3CCNCC3)c2)cnc1N)c1c(Cl)ccc(F)c1Cl [crizotinib]
In short: as §1

[14] = compound: C[C@H](C1=CC=C(C=C1)C(=O)NC2=C3C=CNC3=NC=C2)N
In short: as §1

[15] = compound: C[C@H](Nc1ncnc2nc[nH]c12)c1cc2cccc(Cl)c2c(=O)n1-c1ccccc1 [duvelisib]
In short: as §1

[16] = compound: Cc1cc(Nc2cc(CN3CCOCC3)c3nc(C)c(Cc4ccc(Cl)cc4F)n3n2)n[nH]1 [gandotinib]
In short: as §1

[17] = compound: Cc1cc(Nc2cc(N3CCN(C)CC3)nc(Sc3ccc(NC(=O)C4CC4)cc3)n2)n[nH]1 [tozasertib]
In short: as §1

[18] = compound: Cc1ccc(-n2nc(C(C)(C)C)cc2NC(=O)Nc2ccc(OCCN3CCOCC3)c3ccccc23)cc1 [doramapimod]
In short: as §1

[19] = compound: Cc1ccc(NC(=O)c2ccc(CN3CC[C@H](N(C)C)C3)c(C(F)(F)F)c2)cc1Nc1nccc(-c2cncnc2)n1 [bafetinib]
In short: as §1

[20] = compound: Cc1cccc(CC(=O)N2CCc3c2ccc(-c2cn(C)c4ncnc(N)c24)c3F)n1
In short: as §1

Row | Target | log2 fold change [1] | log2 fold change [2] | log2 fold change [3] | log2 fold change [4] | log2 fold change [5] | log2 fold change [6] | log2 fold change [7] | log2 fold change [8] | log2 fold change [9] | log2 fold change [10] | log2 fold change [11] | log2 fold change [12] | log2 fold change [13] | log2 fold change [14] | log2 fold change [15] | log2 fold change [16] | log2 fold change [17] | log2 fold change [18] | log2 fold change [19] | log2 fold change [20]
1 | LIAS (UniProt O43766) | inactive: -0.024 | inactive: 0.039 | inactive: 0.024 | inactive: -0.013 | inactive: 0.089 | inactive: -0.008 | inactive: -0.032 | inactive: -0.001 | inactive: -0.016 | inactive: -0.007 | inactive: -0.019 | inactive: -0.01 | inactive: 0.06 | inactive: -0.044 | inactive: 0.065 | inactive: 0.038 | inactive: -0.003 | inactive: -0.047 | inactive: -0.004 | inactive: 0.017
2 | LEMD3 (UniProt Q9Y2U8) | inactive: -0.009 | inactive: -0.166 | inactive: -0.052 |  |  |  |  | inactive: 0.071 | inactive: -0.066 | inactive: -0.051 | inactive: 0.078 | inactive: 0.158 | inactive: -0.053 | inactive: -0.089 |  | inactive: -0.029 |  | inactive: -0.072 | inactive: -0.001 | inactive: -0.054
3 | LONRF2 (UniProt Q1L5Z9) | inactive: -0.015 |  | inactive: 0.079 |  | inactive: 0.018 | inactive: 0.042 | inactive: -0.11 | inactive: -0.046 |  | inactive: 0.068 |  |  | inactive: -0.001 | inactive: 0.03 | inactive: -0.002 | inactive: -0.104 | inactive: -0.097 | inactive: 0.013 |  | inactive: -0.013
4 | LDHA isoform 3 (UniProt P00338) | inactive: 0.026 | inactive: 0.043 | inactive: -0.005 | inactive: -0.001 | inactive: 0.013 | inactive: -0.036 | inactive: -0.019 | inactive: 0.01 | inactive: -0.001 | inactive: -0.005 | inactive: 0.005 | inactive: -0.002 | inactive: -0.008 | inactive: 0.006 | inactive: -0.001 | inactive: 0.02 | inactive: -0.014 | inactive: 0.031 | inactive: 0.081 | inactive: -0.021
5 | LRRFIP2 (UniProt Q9Y608) | inactive: -0.033 | inactive: 0.009 | inactive: -0.031 | inactive: -0.009 | inactive: 0.004 | inactive: 0.009 | inactive: -0.027 | inactive: -0.015 | inactive: 0.001 | inactive: 0.015 | inactive: 0.003 | inactive: -0.009 | inactive: 0.041 | inactive: 0.048 | inactive: 0.015 | inactive: 0.018 | inactive: 0.002 | inactive: -0.024 | inactive: 0.045 | inactive: -0.035
6 | LDLRAP1 (UniProt Q5SW96) | inactive: 0.049 | inactive: 0.015 | inactive: 0.123 | inactive: 0.069 | inactive: 0.003 | inactive: -0.016 | inactive: -0.013 | inactive: 0 |  | inactive: 0.03 |  | inactive: 0.198 | inactive: -0.065 | inactive: 0.045 | inactive: -0.021 | inactive: 0.116 | inactive: -0.01 | inactive: 0.052 | inactive: -0.061 | inactive: -0.032
7 | LSM11 (UniProt P83369) | inactive: 0.134 |  | inactive: -0.15 | inactive: -0.119 | inactive: 0.009 | inactive: 0.082 | inactive: 0.041 |  |  |  |  |  | inactive: 0.025 | inactive: -0.123 | inactive: 0.009 | inactive: 0.039 | inactive: 0.011 | inactive: 0.123 |  | inactive: -0.394
8 | LSM1 (UniProt O15116) | inactive: -0.005 | inactive: 0.014 | inactive: 0.064 | inactive: 0.075 | inactive: -0.007 | inactive: -0.016 | inactive: -0.022 | inactive: 0.001 | inactive: -0.042 | inactive: -0.115 | inactive: 0.033 | inactive: -0.033 | inactive: 0.104 | inactive: 0.017 | inactive: -0.016 | inactive: 0.03 | inactive: -0.012 | inactive: 0 | inactive: 0.054 | inactive: -0.045
9 | LRIG2 (UniProt O94898) | inactive: -0.029 | inactive: -0.076 | inactive: -0.002 | inactive: 0.002 | inactive: 0.026 | inactive: 0.058 | inactive: -0.05 | inactive: 0.173 | inactive: 0.033 | inactive: 0.076 | inactive: -0.015 |  | inactive: 0.017 | inactive: -0.036 | inactive: -0.055 | inactive: 0.077 | inactive: 0.054 | inactive: 0.017 |  | inactive: 0.061
10 | LINGO1 (UniProt Q96FE5) | inactive: -0.025 | inactive: 0.041 | inactive: -0.05 | inactive: -0.094 | inactive: 0.05 | inactive: -0.084 | inactive: 0.078 |  | inactive: 0.029 |  | inactive: -0.111 | inactive: 0.017 |  | inactive: -0.135 | inactive: -0.012 | inactive: 0.064 | inactive: -0.011 |  | inactive: -0.002 | inactive: 0.032
11 | LMF2 (UniProt Q9BU23) | inactive: -0.087 |  | inactive: 0.06 | inactive: 0.01 | inactive: 0.125 | inactive: 0.033 | inactive: -0.088 | inactive: 0.041 |  | inactive: 0.117 |  | inactive: -0.022 | inactive: 0.014 | inactive: -0.208 | inactive: -0.024 | inactive: 0.062 | inactive: 0.089 | inactive: 0.047 | inactive: -0.051 | inactive: 0.169
12 | LRRC8E (UniProt Q6NSJ5) | inactive: 0.075 | inactive: -0.032 |  | inactive: -0.085 |  | inactive: 0.192 | inactive: -0.113 |  |  |  |  |  | inactive: 0.022 | inactive: -0.033 |  | inactive: 0.161 | inactive: 0.135 | inactive: -0.058 |  | inactive: 0.307
13 | LRIF1 (UniProt Q5T3J3) | inactive: -0.018 | inactive: 0.075 | inactive: -0.035 | inactive: 0.002 | inactive: 0.126 | inactive: 0.049 | inactive: 0.052 | inactive: -0.03 | inactive: 0.234 | inactive: -0.039 | inactive: -0.094 |  | inactive: 0.019 | inactive: -0.008 | inactive: -0.133 | inactive: 0.006 | inactive: 0.039 | inactive: 0.026 |  | inactive: -0.038
14 | LSM5 (UniProt Q9Y4Y9) | inactive: 0.2 | inactive: -0.059 | inactive: -0.027 | inactive: 0.002 | inactive: -0.251 | inactive: -0.068 | inactive: -0.087 |  | inactive: 0.068 |  | inactive: -0.193 | inactive: 0.005 | inactive: -0.086 | inactive: 0.219 | inactive: 0.028 | inactive: -0.06 | inactive: 0.124 | inactive: 0.067 | inactive: 0.071 | inactive: -0.102
15 | LCORL (UniProt Q8N3X6) | inactive: 0.026 | inactive: -0.039 | inactive: -0.036 | inactive: -0.23 |  |  |  |  |  |  |  |  |  | inactive: -0.04 |  | inactive: -0.061 |  |  |  | inactive: 0.206
16 | LEPROT (UniProt O15243) | inactive: 0.006 | inactive: 0.01 | inactive: 0 |  |  | inactive: -0.003 | inactive: 0.01 |  | inactive: 0.022 |  | inactive: -0.058 | inactive: 0 | inactive: -0.069 | inactive: -0.019 |  | inactive: 0.054 | inactive: -0.116 | inactive: 0 | inactive: -0.067 | inactive: 0.056
17 | LIMK1 (UniProt P53667) | inactive: -0.135 | inactive: 0 |  | inactive: -0.053 | inactive: -0.085 | active: 0.489 | inactive: -0.086 | inactive: -0.261 | inactive: -0.203 | inactive: 0.106 | inactive: 0.049 | inactive: -0.087 | inactive: 0.276 | inactive: 0.029 | inactive: 0.109 | inactive: -0.03 | inactive: 0.096 | inactive: -0.009 | inactive: -0.348 | inactive: 0.138
18 | LMNA (UniProt P02545) | inactive: 0.001 | inactive: -0.006 | inactive: -0.013 | inactive: -0.003 | inactive: -0.061 | inactive: 0 | inactive: -0.052 | inactive: -0.036 | inactive: 0.022 | inactive: 0.023 | inactive: -0.014 | inactive: -0.009 | inactive: 0.059 | inactive: -0.005 | inactive: -0.007 | inactive: -0.01 | inactive: 0.019 | inactive: 0.02 | inactive: 0.02 | inactive: -0.016
19 | LEMD2 (UniProt Q8NC56) | inactive: -0.004 | inactive: -0.03 | inactive: 0.072 |  | inactive: -0.003 | inactive: -0.001 | inactive: 0.087 |  | inactive: 0.016 |  | inactive: 0.037 |  | inactive: -0.049 | inactive: -0.005 | inactive: -0.061 | inactive: -0.021 | inactive: -0.048 | inactive: 0.036 |  | inactive: 0.008

Nos. 13 to 14, reprinted for reference:
Row | Target | log2 fold change [1] | log2 fold change [2] | log2 fold change [3] | log2 fold change [4] | log2 fold change [5] | log2 fold change [6] | log2 fold change [7] | log2 fold change [8] | log2 fold change [9] | log2 fold change [10] | log2 fold change [11] | log2 fold change [12] | log2 fold change [13] | log2 fold change [14] | log2 fold change [15] | log2 fold change [16] | log2 fold change [17] | log2 fold change [18] | log2 fold change [19] | log2 fold change [20]
13 | LRIF1 (UniProt Q5T3J3) | inactive: -0.018 | inactive: 0.075 | inactive: -0.035 | inactive: 0.002 | inactive: 0.126 | inactive: 0.049 | inactive: 0.052 | inactive: -0.03 | inactive: 0.234 | inactive: -0.039 | inactive: -0.094 |  | inactive: 0.019 | inactive: -0.008 | inactive: -0.133 | inactive: 0.006 | inactive: 0.039 | inactive: 0.026 |  | inactive: -0.038
14 | LSM5 (UniProt Q9Y4Y9) | inactive: 0.2 | inactive: -0.059 | inactive: -0.027 | inactive: 0.002 | inactive: -0.251 | inactive: -0.068 | inactive: -0.087 |  | inactive: 0.068 |  | inactive: -0.193 | inactive: 0.005 | inactive: -0.086 | inactive: 0.219 | inactive: 0.028 | inactive: -0.06 | inactive: 0.124 | inactive: 0.067 | inactive: 0.071 | inactive: -0.102
